# Data as given in article PMC8980084.
# Amino acid sequences for entries named in this document (tags omitted).
# UniProt Q96PY5: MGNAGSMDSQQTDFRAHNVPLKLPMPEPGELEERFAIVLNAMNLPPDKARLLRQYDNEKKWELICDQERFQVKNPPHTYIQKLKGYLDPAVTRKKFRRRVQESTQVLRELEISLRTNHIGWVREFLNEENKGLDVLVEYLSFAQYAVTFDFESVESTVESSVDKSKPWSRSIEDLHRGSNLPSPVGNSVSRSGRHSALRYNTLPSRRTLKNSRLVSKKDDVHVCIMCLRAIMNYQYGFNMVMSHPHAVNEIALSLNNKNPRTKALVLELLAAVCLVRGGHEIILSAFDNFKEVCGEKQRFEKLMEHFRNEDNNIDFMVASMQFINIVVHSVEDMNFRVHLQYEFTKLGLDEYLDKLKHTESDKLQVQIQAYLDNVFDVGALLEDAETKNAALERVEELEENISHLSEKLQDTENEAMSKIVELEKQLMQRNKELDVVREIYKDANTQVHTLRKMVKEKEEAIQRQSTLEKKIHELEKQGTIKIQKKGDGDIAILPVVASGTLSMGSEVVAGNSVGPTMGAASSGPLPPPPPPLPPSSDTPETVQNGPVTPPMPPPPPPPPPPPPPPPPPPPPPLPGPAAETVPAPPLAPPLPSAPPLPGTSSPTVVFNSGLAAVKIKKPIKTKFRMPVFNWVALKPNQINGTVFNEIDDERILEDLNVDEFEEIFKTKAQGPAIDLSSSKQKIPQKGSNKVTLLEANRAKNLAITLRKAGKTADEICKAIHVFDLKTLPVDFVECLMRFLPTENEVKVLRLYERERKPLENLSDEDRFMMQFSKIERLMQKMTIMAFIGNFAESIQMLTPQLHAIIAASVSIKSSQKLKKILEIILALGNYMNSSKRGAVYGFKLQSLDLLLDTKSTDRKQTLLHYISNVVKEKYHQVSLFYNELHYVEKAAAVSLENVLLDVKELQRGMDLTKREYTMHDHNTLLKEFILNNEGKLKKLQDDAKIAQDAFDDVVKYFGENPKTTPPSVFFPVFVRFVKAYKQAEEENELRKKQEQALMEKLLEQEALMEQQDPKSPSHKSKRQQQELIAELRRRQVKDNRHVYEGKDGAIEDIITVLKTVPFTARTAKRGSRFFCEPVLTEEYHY
# UniProt P61586: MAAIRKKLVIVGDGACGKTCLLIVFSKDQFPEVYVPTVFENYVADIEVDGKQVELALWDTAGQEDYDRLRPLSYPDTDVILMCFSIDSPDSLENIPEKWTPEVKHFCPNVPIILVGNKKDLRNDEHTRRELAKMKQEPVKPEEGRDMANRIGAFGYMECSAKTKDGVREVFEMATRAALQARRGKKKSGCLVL
# Results are given in words; binding and its absence hold for the method and conditions named. Binding seen in cells or lysates may run through a third protein. Some results given as binding are weak or reduced against the parent protein; the word gives no strength.
# Target: Formin-like protein 2 (FMNL2) (human) (UniProt Q96PY5)
# Assay: co-IP; Dynabeads protein G immunoprecipitation kit (Invitrogen), breast cancer cells; precipitating antibody and cell line not stated; detection by western blotting
substance,measurement,value
RhoA (from UniProt P61586 1-193),binding,binds
